Results published in the supplement of paper PMC10849652.
The list shows a part of the results.

Chains of the proteins cited; added tags and fusions are not shown. Lines headed by an entry give the natural chain unless they say otherwise; changes in a name come on top.
UniProt P34096: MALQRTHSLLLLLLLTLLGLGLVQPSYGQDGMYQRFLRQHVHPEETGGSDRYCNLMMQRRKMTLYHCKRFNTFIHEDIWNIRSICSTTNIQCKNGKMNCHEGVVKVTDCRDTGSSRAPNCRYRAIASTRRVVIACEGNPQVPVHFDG
UniProt Q9H1K0: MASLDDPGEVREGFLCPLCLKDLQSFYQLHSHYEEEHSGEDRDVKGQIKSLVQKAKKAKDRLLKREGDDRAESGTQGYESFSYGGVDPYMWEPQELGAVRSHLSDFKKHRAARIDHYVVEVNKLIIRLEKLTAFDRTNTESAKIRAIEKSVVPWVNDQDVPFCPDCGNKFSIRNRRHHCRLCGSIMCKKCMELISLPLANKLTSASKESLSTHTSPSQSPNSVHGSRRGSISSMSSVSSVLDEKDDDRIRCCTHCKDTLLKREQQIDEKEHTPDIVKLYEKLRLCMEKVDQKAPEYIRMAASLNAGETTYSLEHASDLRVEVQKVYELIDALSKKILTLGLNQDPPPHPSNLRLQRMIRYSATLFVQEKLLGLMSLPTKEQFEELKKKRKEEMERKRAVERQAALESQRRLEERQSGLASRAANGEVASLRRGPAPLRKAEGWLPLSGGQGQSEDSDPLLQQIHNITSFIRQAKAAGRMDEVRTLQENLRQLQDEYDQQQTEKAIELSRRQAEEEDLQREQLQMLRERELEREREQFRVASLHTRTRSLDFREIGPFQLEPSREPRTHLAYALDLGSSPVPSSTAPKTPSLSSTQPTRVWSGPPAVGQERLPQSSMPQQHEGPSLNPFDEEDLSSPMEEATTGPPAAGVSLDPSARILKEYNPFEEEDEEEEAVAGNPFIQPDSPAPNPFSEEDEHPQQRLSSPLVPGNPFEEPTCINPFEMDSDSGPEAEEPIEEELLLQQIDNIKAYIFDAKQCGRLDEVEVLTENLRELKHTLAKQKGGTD
UniProt Q96AA3: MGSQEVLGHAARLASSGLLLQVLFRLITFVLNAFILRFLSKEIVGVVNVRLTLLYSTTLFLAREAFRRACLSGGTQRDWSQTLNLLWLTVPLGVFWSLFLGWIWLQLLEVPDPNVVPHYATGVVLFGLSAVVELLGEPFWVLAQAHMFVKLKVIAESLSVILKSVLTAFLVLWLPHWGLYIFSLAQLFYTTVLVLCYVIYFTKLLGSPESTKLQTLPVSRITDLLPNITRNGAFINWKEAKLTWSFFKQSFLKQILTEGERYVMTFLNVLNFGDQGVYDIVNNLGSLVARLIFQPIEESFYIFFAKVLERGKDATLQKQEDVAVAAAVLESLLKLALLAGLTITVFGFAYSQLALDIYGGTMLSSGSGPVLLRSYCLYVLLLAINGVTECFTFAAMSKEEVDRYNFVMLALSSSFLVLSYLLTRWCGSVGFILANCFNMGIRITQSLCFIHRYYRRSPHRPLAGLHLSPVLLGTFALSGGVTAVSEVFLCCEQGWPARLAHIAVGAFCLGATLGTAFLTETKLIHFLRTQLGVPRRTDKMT
UniProt Q6NUQ1: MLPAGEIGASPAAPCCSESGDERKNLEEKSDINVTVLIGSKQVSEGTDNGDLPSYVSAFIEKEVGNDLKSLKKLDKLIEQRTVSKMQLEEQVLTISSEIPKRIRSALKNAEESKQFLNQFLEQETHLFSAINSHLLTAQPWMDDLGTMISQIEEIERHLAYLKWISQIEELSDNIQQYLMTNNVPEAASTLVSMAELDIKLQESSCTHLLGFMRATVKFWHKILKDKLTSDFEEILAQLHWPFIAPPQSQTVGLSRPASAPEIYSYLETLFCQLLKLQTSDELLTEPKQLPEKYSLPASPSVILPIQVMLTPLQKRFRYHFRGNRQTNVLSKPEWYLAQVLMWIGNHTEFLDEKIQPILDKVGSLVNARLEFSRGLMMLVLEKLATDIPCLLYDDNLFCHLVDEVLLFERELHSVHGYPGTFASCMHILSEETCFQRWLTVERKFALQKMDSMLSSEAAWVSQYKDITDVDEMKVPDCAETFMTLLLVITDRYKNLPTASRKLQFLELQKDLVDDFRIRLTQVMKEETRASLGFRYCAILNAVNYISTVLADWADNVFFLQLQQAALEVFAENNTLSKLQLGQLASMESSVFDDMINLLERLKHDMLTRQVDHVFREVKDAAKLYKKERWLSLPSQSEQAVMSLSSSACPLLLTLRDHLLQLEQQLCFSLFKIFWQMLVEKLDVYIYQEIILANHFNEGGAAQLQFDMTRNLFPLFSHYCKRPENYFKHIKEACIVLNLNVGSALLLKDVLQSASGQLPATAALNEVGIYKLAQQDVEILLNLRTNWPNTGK
UniProt Q969G6: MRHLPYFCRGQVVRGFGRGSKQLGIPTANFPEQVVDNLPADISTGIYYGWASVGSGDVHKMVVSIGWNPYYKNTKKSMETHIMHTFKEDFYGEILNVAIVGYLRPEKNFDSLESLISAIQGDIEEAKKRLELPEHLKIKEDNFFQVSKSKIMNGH
UniProt Q8WU17: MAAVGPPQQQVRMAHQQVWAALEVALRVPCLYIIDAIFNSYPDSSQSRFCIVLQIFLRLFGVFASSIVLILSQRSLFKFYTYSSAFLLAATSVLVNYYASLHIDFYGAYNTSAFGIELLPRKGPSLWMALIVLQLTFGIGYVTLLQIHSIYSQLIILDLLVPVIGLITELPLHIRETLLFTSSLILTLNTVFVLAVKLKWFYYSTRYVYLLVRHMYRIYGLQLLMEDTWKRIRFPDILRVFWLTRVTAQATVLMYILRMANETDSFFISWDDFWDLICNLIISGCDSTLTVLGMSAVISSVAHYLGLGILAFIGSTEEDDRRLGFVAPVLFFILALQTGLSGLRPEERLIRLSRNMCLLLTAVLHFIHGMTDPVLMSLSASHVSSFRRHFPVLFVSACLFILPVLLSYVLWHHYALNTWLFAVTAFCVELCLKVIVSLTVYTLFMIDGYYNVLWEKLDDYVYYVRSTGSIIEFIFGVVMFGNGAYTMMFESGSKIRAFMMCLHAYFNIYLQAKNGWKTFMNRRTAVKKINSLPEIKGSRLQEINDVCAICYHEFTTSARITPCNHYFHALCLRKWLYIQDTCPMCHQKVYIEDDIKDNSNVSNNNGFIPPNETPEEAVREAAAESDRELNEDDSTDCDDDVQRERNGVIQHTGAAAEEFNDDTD
UniProt Q6NUK4: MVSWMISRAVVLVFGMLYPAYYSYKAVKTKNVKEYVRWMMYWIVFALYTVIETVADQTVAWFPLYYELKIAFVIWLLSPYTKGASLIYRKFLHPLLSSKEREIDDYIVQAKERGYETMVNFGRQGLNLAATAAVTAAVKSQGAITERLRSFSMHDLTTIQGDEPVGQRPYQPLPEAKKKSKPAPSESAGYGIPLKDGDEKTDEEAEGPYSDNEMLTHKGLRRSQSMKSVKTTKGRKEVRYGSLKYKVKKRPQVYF
UniProt O43566: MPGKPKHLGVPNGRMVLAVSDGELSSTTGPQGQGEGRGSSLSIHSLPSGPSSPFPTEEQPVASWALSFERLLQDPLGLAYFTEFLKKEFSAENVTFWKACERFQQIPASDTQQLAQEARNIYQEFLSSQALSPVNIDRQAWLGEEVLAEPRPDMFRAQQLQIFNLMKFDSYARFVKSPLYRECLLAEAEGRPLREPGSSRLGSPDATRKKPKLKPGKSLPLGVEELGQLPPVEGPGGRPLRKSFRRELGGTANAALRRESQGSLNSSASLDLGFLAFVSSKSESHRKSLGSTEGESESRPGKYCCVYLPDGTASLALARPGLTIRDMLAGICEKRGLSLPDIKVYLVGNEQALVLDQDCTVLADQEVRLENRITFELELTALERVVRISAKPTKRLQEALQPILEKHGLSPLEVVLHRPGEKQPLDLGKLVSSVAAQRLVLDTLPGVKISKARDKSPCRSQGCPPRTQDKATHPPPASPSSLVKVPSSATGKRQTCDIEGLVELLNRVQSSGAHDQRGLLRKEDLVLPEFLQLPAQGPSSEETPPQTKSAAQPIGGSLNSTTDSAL
UniProt P82980: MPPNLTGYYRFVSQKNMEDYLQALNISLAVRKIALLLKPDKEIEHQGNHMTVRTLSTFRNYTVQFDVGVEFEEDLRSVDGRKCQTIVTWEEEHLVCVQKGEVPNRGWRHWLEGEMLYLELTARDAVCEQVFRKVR
UniProt Q5EBL4: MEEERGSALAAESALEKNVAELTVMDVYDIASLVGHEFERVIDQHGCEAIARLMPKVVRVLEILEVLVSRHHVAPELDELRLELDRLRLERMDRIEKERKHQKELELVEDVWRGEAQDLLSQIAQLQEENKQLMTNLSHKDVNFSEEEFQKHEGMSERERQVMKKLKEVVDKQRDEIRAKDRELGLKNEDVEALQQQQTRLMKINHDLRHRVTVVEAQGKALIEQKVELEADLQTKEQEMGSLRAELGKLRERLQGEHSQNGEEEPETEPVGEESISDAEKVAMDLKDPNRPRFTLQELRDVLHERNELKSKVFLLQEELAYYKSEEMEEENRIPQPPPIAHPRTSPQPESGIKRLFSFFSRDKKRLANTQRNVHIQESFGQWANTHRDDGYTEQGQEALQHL
UniProt Q9Y3C5: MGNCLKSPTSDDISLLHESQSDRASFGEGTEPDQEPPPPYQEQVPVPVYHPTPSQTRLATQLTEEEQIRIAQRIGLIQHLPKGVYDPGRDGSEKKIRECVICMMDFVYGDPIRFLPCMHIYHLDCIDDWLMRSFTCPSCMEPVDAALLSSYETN
UniProt P62745, whole entry, looked up: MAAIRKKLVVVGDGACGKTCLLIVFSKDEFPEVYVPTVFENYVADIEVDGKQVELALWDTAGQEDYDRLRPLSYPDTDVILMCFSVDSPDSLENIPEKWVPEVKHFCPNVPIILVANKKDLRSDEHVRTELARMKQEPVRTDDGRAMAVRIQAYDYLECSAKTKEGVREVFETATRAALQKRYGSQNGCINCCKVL
UniProt Q96D71: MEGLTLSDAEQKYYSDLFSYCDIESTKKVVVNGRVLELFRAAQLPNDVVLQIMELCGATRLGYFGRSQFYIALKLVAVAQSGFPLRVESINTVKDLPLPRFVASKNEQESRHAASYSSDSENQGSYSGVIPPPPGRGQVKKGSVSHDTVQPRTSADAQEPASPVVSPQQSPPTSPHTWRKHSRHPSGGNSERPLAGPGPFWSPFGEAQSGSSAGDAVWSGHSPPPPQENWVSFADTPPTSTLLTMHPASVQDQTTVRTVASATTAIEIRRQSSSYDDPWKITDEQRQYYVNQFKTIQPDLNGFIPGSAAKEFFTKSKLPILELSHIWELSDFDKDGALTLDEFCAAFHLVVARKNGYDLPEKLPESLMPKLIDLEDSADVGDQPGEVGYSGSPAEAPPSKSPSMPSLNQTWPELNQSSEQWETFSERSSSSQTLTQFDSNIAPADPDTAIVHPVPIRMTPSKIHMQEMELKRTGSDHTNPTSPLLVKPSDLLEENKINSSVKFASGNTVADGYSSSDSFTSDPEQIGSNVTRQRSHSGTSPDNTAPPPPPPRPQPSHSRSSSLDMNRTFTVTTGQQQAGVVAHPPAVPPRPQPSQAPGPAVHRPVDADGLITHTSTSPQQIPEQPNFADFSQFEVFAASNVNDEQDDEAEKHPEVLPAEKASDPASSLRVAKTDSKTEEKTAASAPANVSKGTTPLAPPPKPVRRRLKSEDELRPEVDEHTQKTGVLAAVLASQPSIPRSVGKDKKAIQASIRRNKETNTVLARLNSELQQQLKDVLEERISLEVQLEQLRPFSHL
UniProt Q6NTF9: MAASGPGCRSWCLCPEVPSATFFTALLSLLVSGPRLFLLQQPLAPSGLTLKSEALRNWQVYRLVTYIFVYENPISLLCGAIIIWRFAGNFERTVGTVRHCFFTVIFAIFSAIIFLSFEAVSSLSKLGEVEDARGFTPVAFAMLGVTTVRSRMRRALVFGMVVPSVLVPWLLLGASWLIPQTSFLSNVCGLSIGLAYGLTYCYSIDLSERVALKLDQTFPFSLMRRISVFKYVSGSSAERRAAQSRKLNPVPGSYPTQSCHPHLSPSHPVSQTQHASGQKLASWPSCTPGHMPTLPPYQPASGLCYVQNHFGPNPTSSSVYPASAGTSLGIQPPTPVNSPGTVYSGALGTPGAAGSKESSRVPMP
UniProt P35249, whole entry, looked up: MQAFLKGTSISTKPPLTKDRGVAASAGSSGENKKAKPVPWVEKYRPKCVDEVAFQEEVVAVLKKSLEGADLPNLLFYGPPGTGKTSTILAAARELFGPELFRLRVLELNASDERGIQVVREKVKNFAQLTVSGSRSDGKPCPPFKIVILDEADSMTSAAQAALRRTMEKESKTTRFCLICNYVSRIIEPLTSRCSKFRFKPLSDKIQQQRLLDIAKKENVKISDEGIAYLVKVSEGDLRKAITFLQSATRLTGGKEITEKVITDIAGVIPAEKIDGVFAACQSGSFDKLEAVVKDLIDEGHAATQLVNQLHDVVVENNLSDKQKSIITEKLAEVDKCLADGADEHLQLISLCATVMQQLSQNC
UniProt Q9H0Z9: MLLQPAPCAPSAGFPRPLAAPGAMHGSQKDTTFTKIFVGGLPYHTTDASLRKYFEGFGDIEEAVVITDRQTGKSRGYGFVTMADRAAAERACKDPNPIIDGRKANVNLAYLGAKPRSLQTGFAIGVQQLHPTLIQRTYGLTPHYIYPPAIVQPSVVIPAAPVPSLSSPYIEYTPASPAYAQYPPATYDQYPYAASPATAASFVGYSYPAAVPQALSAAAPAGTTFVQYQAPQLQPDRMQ

compound: c1cn2cc(-c3ccc4cn[nH]c4c3)nc(Nc3ccc(N4CCOCC4)cc3)c2n1 [entospletinib]; test: log2 fold change, soluble protein after heating vs DMSO (PISA); higher = thermal stabilisation; K562 cells, 10 uM, 30 min; active = over 0.2 and 3.5 SD of the protein, either way, in both replicates (recomputed)
Procedure, shortened: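 Thermal stability values are relative to control samples and come from duplicates. They are expressed as log2 fold changes. For measurement, K562 cells (2×10^6 cells/mL) received 10 μM compound for 30 min, and aliquots were heated for 3 min over 48°C-58°C, pooled, and extracted at 4°C in PBS with 0.5% NP-40. Soluble protein, the supernatant after 21,000xg for 90 min, was quantified by TMTpro 16plex LC-MS/MS with equalised channel sums.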

log2 fold change, inactive:
RMDN3 (UniProt Q96TC7) 0.002
RNASE4 (UniProt P34096) 0.065
RHAG (UniProt Q02094) 0.003
RBSN (UniProt Q9H1K0) 0.115
RDH14 (UniProt Q9HBH5) 0.057
RFT1 (UniProt Q96AA3) -0.004
RFC5 (UniProt P40937) -0.064
RBM42 (UniProt Q9BTD8) 0.038
RNF213 isoform 4 (UniProt Q63HN8) 0.109
RINT1 (UniProt Q6NUQ1) 0.086
RFK (UniProt Q969G6) -0.005
RNF139 (UniProt Q8WU17) -0.029
RDX (UniProt P35241) 0.001
REEP3 (UniProt Q6NUK4) -0.126
RHBDD1 (UniProt Q8TEB9) 0.042
RFX3 (UniProt P48380) -0.176
RGS14 (UniProt O43566) 0.021
RBP5 (UniProt P82980) -0.341
RBP4 (UniProt P02753) 0.06
RILPL1 (UniProt Q5EBL4) 0.106
RNF11 (UniProt Q9Y3C5) -0.034
RNF13 (UniProt O43567) 0.144
RHOB (UniProt P62745) -0.028
RELCH isoform 2 (UniProt Q9P260) 0
REPS1 (UniProt Q96D71) 0.183
RHBDD2 isoform 2 (UniProt Q6NTF9) -0.197
RFC4 (UniProt P35249) -0.037
RBM38 (UniProt Q9H0Z9) 0.05
RNF24 isoform 2 (UniProt Q9Y225) 0.026

Random excerpt: 2 entries already listed
log2 fold change, inactive:
RBP5 (UniProt P82980) -0.341
RHBDD2 isoform 2 (UniProt Q6NTF9) -0.197
